This is an account of results in article PMC5505202.

Amino acid sequences for entries named in this document (tags omitted).
UniProt Q04741: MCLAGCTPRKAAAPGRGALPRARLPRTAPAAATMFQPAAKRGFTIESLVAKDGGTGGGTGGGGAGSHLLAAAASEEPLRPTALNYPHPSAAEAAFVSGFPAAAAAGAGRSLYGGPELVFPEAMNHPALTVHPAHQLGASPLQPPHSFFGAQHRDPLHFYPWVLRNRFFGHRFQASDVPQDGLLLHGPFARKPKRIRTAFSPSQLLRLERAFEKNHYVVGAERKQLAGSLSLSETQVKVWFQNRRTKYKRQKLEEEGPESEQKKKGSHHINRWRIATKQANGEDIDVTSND

Results are given in words; binding and its absence hold for the method and conditions named. In cells and extracts the contact can be indirect. Some binding calls cover weakened binding; strength is not graded here. Where a sequence is shown, tags or fusion partners need not be part of it.

In this assay the target is T1, Myc-tagged WDR11, wild type (human) (UniProt Q9BZH6).
T1 sequence: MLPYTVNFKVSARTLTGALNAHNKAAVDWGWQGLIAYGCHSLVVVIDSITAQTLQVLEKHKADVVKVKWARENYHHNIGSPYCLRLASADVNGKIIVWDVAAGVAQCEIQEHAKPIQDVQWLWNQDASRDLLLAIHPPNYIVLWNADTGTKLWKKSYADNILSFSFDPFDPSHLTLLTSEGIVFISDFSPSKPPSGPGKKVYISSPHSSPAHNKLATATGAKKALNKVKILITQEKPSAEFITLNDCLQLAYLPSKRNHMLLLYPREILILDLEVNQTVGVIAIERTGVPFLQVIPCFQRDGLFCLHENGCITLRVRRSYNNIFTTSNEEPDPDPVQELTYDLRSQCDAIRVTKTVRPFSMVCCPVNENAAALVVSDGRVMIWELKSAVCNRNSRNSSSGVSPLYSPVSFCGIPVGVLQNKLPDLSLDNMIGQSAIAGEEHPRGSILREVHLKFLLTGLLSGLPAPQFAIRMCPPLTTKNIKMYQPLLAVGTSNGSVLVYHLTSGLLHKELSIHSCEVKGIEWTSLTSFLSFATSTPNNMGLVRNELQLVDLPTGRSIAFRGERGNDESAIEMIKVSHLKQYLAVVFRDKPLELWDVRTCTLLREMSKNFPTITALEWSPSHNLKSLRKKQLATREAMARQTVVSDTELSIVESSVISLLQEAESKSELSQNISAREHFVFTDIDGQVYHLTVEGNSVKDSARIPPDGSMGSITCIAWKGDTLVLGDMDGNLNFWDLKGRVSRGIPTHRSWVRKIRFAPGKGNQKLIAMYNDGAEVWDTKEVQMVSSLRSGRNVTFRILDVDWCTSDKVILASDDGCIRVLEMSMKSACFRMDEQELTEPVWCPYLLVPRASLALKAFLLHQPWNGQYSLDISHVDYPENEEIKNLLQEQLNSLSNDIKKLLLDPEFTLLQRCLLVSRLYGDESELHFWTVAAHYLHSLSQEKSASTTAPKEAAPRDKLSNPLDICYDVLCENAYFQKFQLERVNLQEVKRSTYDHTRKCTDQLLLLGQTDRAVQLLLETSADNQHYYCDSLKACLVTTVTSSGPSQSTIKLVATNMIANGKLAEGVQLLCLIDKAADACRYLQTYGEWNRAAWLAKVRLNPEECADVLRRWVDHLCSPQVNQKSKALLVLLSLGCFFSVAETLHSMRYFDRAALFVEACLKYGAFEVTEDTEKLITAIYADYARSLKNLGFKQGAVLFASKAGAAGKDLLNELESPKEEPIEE
Nature of the assay: co-IP; Myc-WDR11 (WT or c.1306A>G) coexpressed with HA-EMX1 in HEK293T; lysis buffer 50 mM HEPES, 150 mM NaCl, 10% glycerol, 1% Nonidet P-40, 1 mM EDTA; precipitated with anti-Myc antibody and protein A/G-agarose overnight at 4°C; blot with anti-EMX1.

For the substance “hemagglutinin-tagged EMX1 (from UniProt Q04741 1-290)”, the binding result is “binds”.
